Data on 108 sequences can be found in PubChem BioAssay AID1347426 (Functional Genomics Laboratory (NCATS/FGL), 2020).

Among all 31,000 sequences or so, about 1,400 (4.5%) were called active.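 How the source made its calls: active means median seed-adjusted z-score above 1 or below -1; inactive means the rest.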 The list shows a part of the results.

This assay is described as follows: Novel Modifiers of Survival Motor Neuron (SMN) Protein: Gene Identification via Genome-wide siRNA Screen.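 Further: luminescence tracks full-length SMN protein made from the SMN2 reporter.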 As to conditions: HEK293T SMN2-luciferase reporter, siRNA knockdown, 72 h; actives lie on both sides. In short, it runs like this: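 HEK293T cells stably expressing an SMN2 splicing/cDNA-luciferase reporter were reverse-transfected with a druggable-genome siRNA library and read by luminescence at 72 hours; hits defined by MAD score above 1.0 or below -1.0.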
In the case of GAAGAGCAGCUUAGCGAAATT against AQP9, the median seed-adjusted z-score is inactive: -0.192. GCCGAACAAAUGUACGGAATT against PSMB3: the median seed-adjusted z-score is inactive: -0.725.

As to GGAGUACCGGCUAACAAUATT against MORC4, the median seed-adjusted z-score is inactive: 0.13.

Consider CACUUUGAGUGGAUCCAGATT against PRSS21, for which the median seed-adjusted z-score was inactive: -0.306. In the case of GGAUCUCCUCGUCACAUAATT against PLCG2, the median seed-adjusted z-score was inactive: 0. The same measure for GCUUACAGCUGGAGUGAAATT against SLAMF1: inactive: -0.104; for CUCCAAUCCCUGUACCUCUTT against KRT31: inactive: 0.604. CCGGAGCUGUUCCACAAGATT against KCNAB2: the median seed-adjusted z-score is inactive: 0. Turning to CUCCUGCUGCAAAACAAUATT against SLC25A6, the median seed-adjusted z-score was inactive: -0.928. To GGACUCUCGUGAAGAGAAATT against DNAI1 belongs inactive: -0.783. The same measure for GGCUGACCAUGACUGUUUUTT against PTGER3: inactive: -0.321; for CGCAAAAAGGCAGACGAAATT against DUX5: inactive: -0.295. To CAAUUGAAGGAGUCUAUAATT against TXNRD3 belongs inactive: 0.69; to AUAUAUUACAGUCACACCATT against KCNK15, inactive: -0.218; to GUGAGACAGUUGACCGAGATT against SLC26A2, active: -1.25. Take GGAGGUCUGUUCUAUCUGUTT against MDFI: the median seed-adjusted z-score is inactive: 0.279.

For the sequence GGUUCACAGAUGAUACGUUTT against RAB18, the median seed-adjusted z-score is inactive: 0.

For GAGGAGUACUUCAGCAACATT against DAPK3, the median seed-adjusted z-score is inactive: -0.105.

On to GCUGAUUUUUGCUAAUAAATT against ARL5A, for which the median seed-adjusted z-score is inactive: 0. The same measure for AGAUUUUGCUAAAUGGAAATT against LSM5: inactive: -0.661. Consider CGAGUAUUCCGGAUCUUCATT against KCNA4, for which the median seed-adjusted z-score was inactive: -0.634. To CUCUCAAAGUGUUAAAGAATT against CAMK4 belongs inactive: 0; to CAGAGAAGGUUUCAGAAGATT against DLX5, inactive: 0.115; to GAGAGUGCCUUACACCAAATT against HOXD13, inactive: 0.116. The same measure for CAAUUUAGAUCAGGAAGUATT against RBM7: inactive: 0. The same measure for GCUUCAUUGUGGACCGGCATT against GALNTL4: inactive: 0; for GCAACCAGAUUUUCAUAAATT against ALDH2: inactive: -0.216.

GAAGAUUGAGUAUGCCUUUTT against CIB4: the median seed-adjusted z-score was inactive: -0.638.

Take GCAGGACCUCAUAAGGAAATT against COX5A: the median seed-adjusted z-score was inactive: -0.348. With GAAGGCCCAUUGGUAUAUATT against STXBP4, the median seed-adjusted z-score is inactive: -0.565. For CAAGUAUGGUGACAUCGUATT against POLR3A, the median seed-adjusted z-score is inactive: 0.395. To GGAGAGUUCUGGACAGCCUTT against MALL belongs inactive: -0.477. Consider GGAGAAUUGAUGUUUCUCATT against CBX3, for which the median seed-adjusted z-score was inactive: -0.893. The same measure for GGAACUUUUUGCUAUAGAUTT against PDS5A: inactive: -0.29; for GGAACUUUGGGUCCUGAAUTT against ZNF251: inactive: -0.851; for CAAUUGCUCUUAUCCUGUUTT against ZBTB26: inactive: 0.

With CAUGCACUGGAGUUAAUUATT against CHRFAM7A, the median seed-adjusted z-score is inactive: 0.115. The same measure for GCUGUGAAUUCAAUUGCAATT against SRI: inactive: 0.994; for CCAAUAUUCGACUUGCGUATT against XPO1: active: 1.12. To GCUGUUGGAUAAUUAUGAATT against RFX2 belongs inactive: 0.271; to CGAUGGGUUCUUUCUAAAATT against SIGLEC10, inactive: 0.0542. The same measure for GACACUAUGAUUAAACUAUTT against EPM2A: inactive: 0.319; for CCUACACGGUCCUUCGUAATT against HEPHL1: inactive: 0.0681. GGAUUCCAGUAUCAUCCGATT against RHOBTB3: the median seed-adjusted z-score was inactive: 0.256. Regarding GGCCUUUGCUCAUACUGCATT against ZNF514, the median seed-adjusted z-score is inactive: 0.125. To CAGAAGACCUGGUGCCCUATT against SPI1 belongs inactive: 0.384; to GGAACAAAAGGAUCGAAUATT against CLSTN3, inactive: 0. The same measure for CGACUGCUGCGAAUCGUUUTT against LGR4: inactive: 0.14; for CGAAUGCCCUAAUGUCAAATT against DNAJB11: inactive: -0.0495; for UGAUGGGAUUUGAUCUGAATT against AGBL4: inactive: 0.487. The same measure for AGCAGAGACUCACAACUUUTT against PFAS: inactive: 0.0344; for CGGACCCGCUGAGACAUUATT against HOXB6: inactive: -0.168; for CUGUUUGAGAGAAACCCAATT against ALK: inactive: 0.0139.

For GCAUAAGAGGGAAUUCACATT against TAGLN, the median seed-adjusted z-score is inactive: 0.0485. Consider GGGCAUGUUUCGUACCGUUTT against MYH10, for which the median seed-adjusted z-score is inactive: 0.0877. The same measure for GCCCAUAUUUCAUCGUGUATT against NPY: inactive: -0.0606; for CCGGACUUCAGAUACGUUATT against DSCAM: inactive: -0.527; for GCUACACCAAGGUCCCUGATT against SPRR3: inactive: 0.682.

Consider GGAAGCUCCUUGUCAAGAUTT against MECP2, for which the median seed-adjusted z-score was inactive: -0.332. The same measure for CCAGCUCUUUGCACAUGAATT against PPP1R3F: inactive: 0.781; for GACAGGUACUUCUAAGUCATT against AHSA1: inactive: 0.489; for CAAGAACUCGGAUAAUGAUTT against IL2RG: inactive: -0.155. The same measure for CAGUGACUGUUGUUGGUCUTT against PKD1L3: inactive: -0.658. With GGACGAGAGAUGUACAUUATT against CNGA1, the median seed-adjusted z-score was active: -1.08.

Take GGGUAAUGGUGGGUCUUAATT against EFHD1: the median seed-adjusted z-score was inactive: -0.326.

As to GAACAUUAGUCAGAUGAUUTT against LIPF, the median seed-adjusted z-score was inactive: 0.54.

Regarding CGAAGCAGCUGAUCAGAAUTT against AKAP7, the median seed-adjusted z-score is inactive: 0.37. For the sequence GGAUGUUUUCCGGUUCAUATT against LOC4951, the median seed-adjusted z-score is inactive: 0.0691. The same measure for CCGUGGACGAGUUCAAGAATT against HPCAL1: inactive: -0.00535.

With GCCUUAAAAUCAUAGUUGUTT against ACSL1, the median seed-adjusted z-score was inactive: 0.264.

Regarding CGAUGAAACCUAUGAUUAUTT against HNRPK, the median seed-adjusted z-score is inactive: 0.296. The same measure for CAGACACUGUCUACAAGAATT against DPYSL5: inactive: 0.0624; for GGAAACUUCUCACCUAUGATT against MAGED1: inactive: 0.524. The same measure for AGGUCAACACGGAGCUCAATT against CHRM1: active: 1.1; for CAUCGAUCCCAAUAACCCATT against HOXA9: inactive: -0.304; for GAAUGUGGGCUAUCUAGAATT against B4GALT4: inactive: -0.0479. The same measure for GUCAUUUACUUGUACGAGATT against CLDN11: inactive: 0.268; for GGAACAAUGUAUCUAACAATT against BOLL: inactive: -0.072; for GGACUACACCAGGACUGUATT against INPP5E: inactive: -0.0321.

Turning to GCUUCAUCGACAAAGAGGATT against MYLC2PL, the median seed-adjusted z-score was inactive: -0.7. Turning to CAGAUAUUGUUGACAAAGATT against NME5, the median seed-adjusted z-score is inactive: 0.393. In the case of GCAGCUCUACAACUCAGUUTT against IL12RB1, the median seed-adjusted z-score was inactive: -0.126.

On to GGAAGAAACAAUUAAAGUATT against NDUFA6, for which the median seed-adjusted z-score was inactive: -0.457. To ACAUCGACUUUCUUGCUGATT against IMPDH1 belongs inactive: 0.558. The same measure for AGGCCGCUGUGGACAUCAATT against CASKIN1: inactive: 0.555. Consider GCAGUUAUGUUGGAAGAUUTT against STX6, for which the median seed-adjusted z-score is inactive: 0.748.

In the case of GAAUUGUUCGUGACUAUGATT against PCYT1B, the median seed-adjusted z-score is inactive: 0.177.

On to GAAUCUUUCCCAUAUCGAATT against CREBBP, for which the median seed-adjusted z-score is inactive: 0. The same measure for CCAUCUGUUUGAACUUAGATT against TLR5: inactive: 0. The same measure for GGAGCAAAACAGAUCUUGATT against PINX1: inactive: 0.11. Consider CGGCAUGCACGAUAAGUUUTT against ABHD8, for which the median seed-adjusted z-score is inactive: -0.48.

Consider AUUUAUUACUUACUGCUUATT against SLC31A2, for which the median seed-adjusted z-score is inactive: 0.401. To GCAUGAUCCUUGUAGGACUTT against SGMS1 belongs inactive: -0.287; to GUAGGUGAGUGGAAAUUCATT against DRD2, inactive: -0.0273; to ACGUGAGACUGCUCAGUGATT against GGA3, inactive: -0.239. Regarding GGACUUAUUCAAUGGGAUATT against GPA33, the median seed-adjusted z-score was inactive: 0.138. To GAGUCAUUAUUGACAACAATT against APH1B belongs inactive: -0.135. With CAGAGGUUGUGACACGAAATT against PAK1, the median seed-adjusted z-score is inactive: -0.168. The same measure for ACGCGUUGCCCUUCACUAATT against CHST5: inactive: 0.0149. To GUUCCAUCCUGAGCACUUUTT against LPXN belongs inactive: -0.065. For CCGUUUUGGUGAGUCAACATT against RANBP2, the median seed-adjusted z-score was active: 1.53. In the case of GCUCAUGGUUGAUGAUUCUTT against RABGGTA, the median seed-adjusted z-score is inactive: -0.0601. To GAGCAAGGCUUAAUGGUCATT against CNGA3 belongs inactive: -0.125. The same measure for CCCUGGAUCUGUCUCGUAATT against ZNF415: inactive: 0.222; for GGAGAUCUAUUUCAGAGUATT against SLC30A8: inactive: -0.767. On to CAAUCUUCUUGGGAUUAUUTT against TRPC7, for which the median seed-adjusted z-score is inactive: 0.146.

As for GGAUCCUGCUAUAUGCUGATT against NPR2, the median seed-adjusted z-score is inactive: 0.0712. The same measure for GGAACUCGCUACAAAGGAATT against DPM1: inactive: -0.214.
